Data as given in PMC12530543.
These are yes or no findings as the source states them, for the method shown. Binding seen in cells or lysates may run through a third protein. A yes stands for co-enrichment or nearness to the bait. Other partners may have been found.

Protein sequences, listed by entry. Tags and fused reporters are not part of them. Lines headed by an entry give the natural chain unless they say otherwise; changes in a name come on top.
UniProt Q86VE9: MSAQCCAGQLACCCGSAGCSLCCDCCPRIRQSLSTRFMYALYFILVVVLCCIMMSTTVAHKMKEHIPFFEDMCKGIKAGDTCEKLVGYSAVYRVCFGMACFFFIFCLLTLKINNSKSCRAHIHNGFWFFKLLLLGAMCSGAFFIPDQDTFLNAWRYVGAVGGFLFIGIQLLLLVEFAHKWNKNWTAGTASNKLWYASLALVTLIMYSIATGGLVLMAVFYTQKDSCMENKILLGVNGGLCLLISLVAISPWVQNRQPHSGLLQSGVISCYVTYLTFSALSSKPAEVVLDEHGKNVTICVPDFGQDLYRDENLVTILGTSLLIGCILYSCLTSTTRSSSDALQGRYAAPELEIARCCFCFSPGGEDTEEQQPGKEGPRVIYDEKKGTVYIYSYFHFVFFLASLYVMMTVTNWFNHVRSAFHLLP
UniProt Q9Y6I9: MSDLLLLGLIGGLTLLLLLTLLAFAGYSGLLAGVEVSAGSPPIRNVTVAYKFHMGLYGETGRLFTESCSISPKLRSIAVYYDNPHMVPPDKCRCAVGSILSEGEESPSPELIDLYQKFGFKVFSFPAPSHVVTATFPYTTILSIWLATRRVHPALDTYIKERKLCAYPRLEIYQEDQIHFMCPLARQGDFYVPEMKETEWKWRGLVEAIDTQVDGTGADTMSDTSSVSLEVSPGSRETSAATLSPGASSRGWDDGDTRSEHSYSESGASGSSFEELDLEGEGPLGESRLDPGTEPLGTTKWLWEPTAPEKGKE

Target: Serine incorporator 5 (SERINC5) with a FLAG-tag (human) (UniProt Q86VE9)
Test: affinity purification with mass spectrometry; Ser5-FLAG, Nef-HA and glycoGag-HA expressed in HEK293T cells (5 samples); RIPA lysis; anti-FLAG M2 magnetic beads or anti-HA affinity gel 24 hrs at 4°C, washed with PBS five times; SDS-PAGE, Nano LC-MS/MS

Molecule: RETREG3, endogenous (from UniProt Q86VR2-1 1-466)
- binding: binds

Molecule: TEX264, endogenous (from UniProt Q9Y6I9 1-313)
- binding: binds

B1: RETREG2, endogenous (protein, UniProt Q8NC44 1-543)
chain: MASGGGGGNTGAGGGPGMGLSLGLGLGLSLGMSEATSEAEEEAATAEAVGRLATTLWLRLRGWEAVLAAAQRLLVWEKPLHSLVTAAALNGLFWLLSSSSLRPFFLLSVSLLAYFLLDLWQPRFLPDVSASSPEEPHSDSEGAGSGARPHLLSVPELCRYLAESWLTFQIHLQELLQYKRQNPAQFCVRVCSGCAVLAVLGHYVPGIMISYIVLLSILLWPLVVYHELIQRMYTRLEPLLMQLDYSMKAEANALHHKHDKRKRQGKNAPPGGDEPLAETESESEAELAGFSPVVDVKKTALALAITDSELSDEEASILESGGFSVSRATTPQLTDVSEDLDQQSLPSEPEETLSRDLGEGEEGELAPPEDLLGRPQALSRQALDSEEEEEDVAAKETLLRLSSPLHFVNTHFNGAGSPPDGVKCSPGGPVETLSPETVSGGLTALPGTLSPPLCLVGSDPAPSPSILPPVPQDSPQPLPAPEEEEALTTEDFELLDQGELEQLNAELGLEPETPPKPPDAPPLGPDIHSLVQSDQEAQAVAEP
- binding: binds

B2: ATL3, endogenous (protein, UniProt Q6DD88 1-541)
chain: MLSPQRVAAAASRGADDAMESSKPGPVQVVLVQKDQHSFELDEKALASILLQDHIRDLDVVVVSVAGAFRKGKSFILDFMLRYLYSQKESGHSNWLGDPEEPLTGFSWRGGSDPETTGIQIWSEVFTVEKPGGKKVAVVLMDTQGAFDSQSTVKDCATIFALSTMTSSVQIYNLSQNIQEDDLQQLQLFTEYGRLAMDEIFQKPFQTLMFLVRDWSFPYEYSYGLQGGMAFLDKRLQVKEHQHEEIQNVRNHIHSCFSDVTCFLLPHPGLQVATSPDFDGKLKDIAGEFKEQLQALIPYVLNPSKLMEKEINGSKVTCRGLLEYFKAYIKIYQGEDLPHPKSMLQATAEANNLAAAASAKDIYYNNMEEVCGGEKPYLSPDILEEKHCEFKQLALDHFKKTKKMGGKDFSFRYQQELEEEIKELYENFCKHNGSKNVFSTFRTPAVLFTGIVALYIASGLTGFIGLEVVAQLFNCMVGLLLIALLTWGYIRYSGQYRELGGAIDFGAAYVLEQASSHIGNSTQATVRDAVVGRPSMDKKAQ
- binding: binds
